Here are results for one substance from publication doi:10.1101/2021.06.09.447716.

Sequences of proteins named here, by UniProt entry; tags and fusion partners are left off. Residues count along the entry.
UniProt P56817, residues 46-501: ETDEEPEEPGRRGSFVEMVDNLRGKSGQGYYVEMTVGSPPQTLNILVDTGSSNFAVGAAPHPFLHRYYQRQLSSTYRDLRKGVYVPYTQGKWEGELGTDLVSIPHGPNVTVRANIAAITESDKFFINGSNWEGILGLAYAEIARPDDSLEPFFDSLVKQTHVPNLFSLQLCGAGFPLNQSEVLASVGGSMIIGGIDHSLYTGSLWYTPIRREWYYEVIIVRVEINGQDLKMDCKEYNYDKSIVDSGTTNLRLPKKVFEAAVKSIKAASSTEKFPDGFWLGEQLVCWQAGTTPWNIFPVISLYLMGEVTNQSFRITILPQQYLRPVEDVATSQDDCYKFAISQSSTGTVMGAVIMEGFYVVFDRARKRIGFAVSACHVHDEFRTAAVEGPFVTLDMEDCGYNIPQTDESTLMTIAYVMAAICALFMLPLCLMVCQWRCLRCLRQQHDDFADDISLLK

No constants are given. Whether binding was seen depends on the method and setting. Binding seen in cells or lysates may run through a third protein. Some entries that bind do so weakly or less than the wild type.

This experiment deals with BACE1-GFP (UniProt P56817). The experiment in a line: co-IP.

As to “siRNA-resistant neuronal Bin1-MYC (brain amphiphysin II (BRAMP2); isoform 1), wild type (from UniProt O08539-1 1-588)”, the binding result is on record as “binds”.
